{
  "source": "paper PMC8384837",
  "details_in_all_cases": "yeast three-hybrid, YBZ-1, SC-Leu-His + 0.5 mM 3-AT, 4 days",
  "key": {"[1]": {"target": "T1, PUM1 PUF domain R5-DCR C1007D + R1008C + Q1011R (UniProt Q14671)", "T1 sequence": "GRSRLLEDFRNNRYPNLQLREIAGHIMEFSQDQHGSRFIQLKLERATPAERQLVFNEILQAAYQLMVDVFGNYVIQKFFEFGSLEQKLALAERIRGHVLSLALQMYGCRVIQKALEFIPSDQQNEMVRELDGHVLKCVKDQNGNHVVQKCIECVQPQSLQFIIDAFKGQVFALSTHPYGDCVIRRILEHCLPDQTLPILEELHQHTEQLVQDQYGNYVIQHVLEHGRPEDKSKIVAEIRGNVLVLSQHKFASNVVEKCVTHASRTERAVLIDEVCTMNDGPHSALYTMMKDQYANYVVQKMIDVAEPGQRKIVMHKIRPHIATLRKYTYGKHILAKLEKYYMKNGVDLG"}, "[2]": {"target": "T2, PUM1 PUF domain R5-DHG C1007D + R1008H + Q1011G (UniProt Q14671)", "T2 sequence": "T1 sequence with C181H, R184G"}, "[3]": {"target": "T3, PUM1 PUF domain R5-DME C1007D + R1008M + Q1011E (UniProt Q14671)", "T3 sequence": "T1 sequence with C181M, R184E"}, "[4]": {"target": "T4, PUM1 PUF domain R5-FKR C1007F + R1008K + Q1011R (UniProt Q14671)", "T4 sequence": "T1 sequence with D180F, C181K"}, "[5]": {"target": "T5, PUM1 PUF domain R5-GGE C1007G + R1008G + Q1011E (UniProt Q14671)", "T5 sequence": "T1 sequence with D180G, C181G, R184E"}, "[6]": {"target": "T6, PUM1 PUF domain R5-GSE C1007G + R1008S + Q1011E (UniProt Q14671)", "T6 sequence": "T1 sequence with D180G, C181S, R184E"}, "[7]": {"target": "T7, PUM1 PUF domain R5-KER C1007K + R1008E + Q1011R (UniProt Q14671)", "T7 sequence": "T1 sequence with D180K, C181E"}, "[8]": {"target": "T8, PUM1 PUF domain R5-KNQ C1007K + R1008N (UniProt Q14671)", "T8 sequence": "T1 sequence with D180K, C181N, R184Q"}, "[9]": {"target": "T9, PUM1 PUF domain R5-LLR C1007L + R1008L + Q1011R (UniProt Q14671)", "T9 sequence": "T1 sequence with D180L, C181L"}, "[10]": {"target": "T10, PUM1 PUF domain R5-RCG C1007R + R1008C + Q1011G (UniProt Q14671)", "T10 sequence": "T1 sequence with D180R, R184G"}, "[11]": {"target": "T11, PUM1 PUF domain R5-RMM C1007R + R1008M + Q1011M (UniProt Q14671)", "T11 sequence": "T1 sequence with D180R, C181M, R184M"}, "[12]": {"target": "T12, PUM1 PUF domain R5-RNL C1007R + R1008N + Q1011L (UniProt Q14671)", "T12 sequence": "T1 sequence with D180R, C181N, R184L"}, "[13]": {"target": "T13, PUM1 PUF domain R5-RSD C1007R + R1008S + Q1011D (UniProt Q14671)", "T13 sequence": "T1 sequence with D180R, C181S, R184D"}, "[14]": {"target": "T14, PUM1 PUF domain R5-RSP C1007R + R1008S + Q1011P (UniProt Q14671)", "T14 sequence": "T1 sequence with D180R, C181S, R184P"}, "[15]": {"target": "T15, PUM1 PUF domain R5-RVM C1007R + R1008V + Q1011M (UniProt Q14671)", "T15 sequence": "T1 sequence with D180R, C181V, R184M"}, "[16]": {"target": "T16, PUM1 PUF domain R5-SAG C1007S + R1008A + Q1011G (UniProt Q14671)", "T16 sequence": "T1 sequence with D180S, C181A, R184G"}, "[17]": {"target": "T17, PUM1 PUF domain R5-SGC C1007S + R1008G + Q1011C (UniProt Q14671)", "T17 sequence": "T1 sequence with D180S, C181G, R184C"}, "[18]": {"target": "T18, PUM1 PUF domain R5-SGS C1007S + R1008G + Q1011S (UniProt Q14671)", "T18 sequence": "T1 sequence with D180S, C181G, R184S"}, "[19]": {"target": "T19, PUM1 PUF domain R5-SNS C1007S + R1008N + Q1011S (UniProt Q14671)", "T19 sequence": "T1 sequence with D180S, C181N, R184S"}, "[20]": {"target": "T20, PUM1 PUF domain R5-SQA C1007S + R1008Q + Q1011A (UniProt Q14671)", "T20 sequence": "T1 sequence with D180S, C181Q, R184A"}},
  "note": "Numbering of substitutions follows the chain as printed. The list shows a part of the results. At the low end of the ranking the order means little.",
  "data": [
    {"sequence": "GGCUAGAACUAGUGGAUCCCCCGGCGCCCGGCGGCUCGAGCCCGGGUAAGUGUAAAUAGUCUGCAUGCCGCCGGGCGCCAUGCCUGCAGGUCGACUCUAGAAAACAUG", "values": [
      {"measurement": "binding signal (log2 enrichment (interaction score))", "setting": "[1]", "value": "< -6.6"},
      {"measurement": "binding signal (log2 enrichment (interaction score))", "setting": "[2]", "value": -2.9},
      {"measurement": "binding signal (log2 enrichment (interaction score))", "setting": "[3]", "value": -3.11},
      {"measurement": "binding signal (log2 enrichment (interaction score))", "setting": "[4]", "value": -3.02},
      {"measurement": "binding signal (log2 enrichment (interaction score))", "setting": "[5]", "value": -2.95},
      {"measurement": "binding signal (log2 enrichment (interaction score))", "setting": "[6]", "value": -3.18},
      {"measurement": "binding signal (log2 enrichment (interaction score))", "setting": "[7]", "value": -2.85},
      {"measurement": "binding signal (log2 enrichment (interaction score))", "setting": "[8]", "value": -2.8},
      {"measurement": "binding signal (log2 enrichment (interaction score))", "setting": "[9]", "value": -3.19},
      {"measurement": "binding signal (log2 enrichment (interaction score))", "setting": "[10]", "value": -2.56},
      {"measurement": "binding signal (log2 enrichment (interaction score))", "setting": "[11]", "value": -2.9},
      {"measurement": "binding signal (log2 enrichment (interaction score))", "setting": "[12]", "value": -2.75},
      {"measurement": "binding signal (log2 enrichment (interaction score))", "setting": "[13]", "value": -3.05},
      {"measurement": "binding signal (log2 enrichment (interaction score))", "setting": "[14]", "value": -2.95},
      {"measurement": "binding signal (log2 enrichment (interaction score))", "setting": "[15]", "value": -2.55},
      {"measurement": "binding signal (log2 enrichment (interaction score))", "setting": "[16]", "value": -3.07},
      {"measurement": "binding signal (log2 enrichment (interaction score))", "setting": "[17]", "value": -3.05},
      {"measurement": "binding signal (log2 enrichment (interaction score))", "setting": "[18]", "value": -3.61},
      {"measurement": "binding signal (log2 enrichment (interaction score))", "setting": "[19]", "value": -3.29},
      {"measurement": "binding signal (log2 enrichment (interaction score))", "setting": "[20]", "value": -3.19}
    ]}
  ]
}
